PubChem BioAssay AID1508588, Peter MacCallum Cancer Centre, 2020
Test: 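Knock-downs boosting vemurafenib effects on melanoma cell growth or lactate release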 (primary screen). Cells: human WM266.4 melanoma cells (BRAF V600 mutant). Reagents: siRNA pool against human genes, 40 nM. Duration: 96 h from transfection to read-out. Treatment: vemurafenib 300 nM (about IC25), added 48 h after transfection, for 48 h; comparison arm got DMSO vehicle only. Read-out: 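Ratios to non-targeting siRNA for cell gain, counted as DAPI nuclei after minus before drug and averaged over two replicates, and for absorbance-read medium lactate per cell; both binned into fold-change classes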. Direction: cell gain with vemurafenib: higher = more cell gain than with non-targeting siRNA; lactate per cell with vemurafenib: higher = more lactate made per cell. Active means: 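a knock-down counts as enhancing when its fold-change classes with vehicle and with vemurafenib, taken together, show a stronger drug effect on cell gain or lactate per cell; exact class pairs not stated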. Calls: active = enhances vemurafenib effect; inactive = no enhancement seen.
Shown is an unselected part of about 18,000 reagents. Of all reagents, 790 (4.4%) were called active. 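Calls rest on a combination of fold-change classes in drug and vehicle arms, not all shown here.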 Unmarked entries are inactive. No sequences are given here.

ZNF33A (zinc finger protein 33A) scored cell gain with vemurafenib 1.03; lactate per cell with vemurafenib 0.92.
Against TRMT2A (tRNA methyltransferase 2A), the entry reads cell gain with vemurafenib 0.55; lactate per cell with vemurafenib 0.47.
Depletion of MIPOL1 (mirror-image polydactyly 1) gave: cell gain with vemurafenib 0.57; lactate per cell with vemurafenib 0.72.
SPINK6 (serine peptidase inhibitor Kazal type 6) scored cell gain with vemurafenib 0.25; lactate per cell with vemurafenib 1.19.
TTC21A (tetratricopeptide repeat domain 21A) showed cell gain with vemurafenib 0.42; lactate per cell with vemurafenib 2.12.
For KCNAB3, the entry reads cell gain with vemurafenib 0.87; lactate per cell with vemurafenib 0.78.
For H2BC1 (H2B clustered histone 1), the entry reads cell gain with vemurafenib 0.77; lactate per cell with vemurafenib 0.83.
For ANAPC1 (anaphase promoting complex subunit 1), the entry reads cell gain with vemurafenib 0.53 (active); lactate per cell with vemurafenib 0.4.
RNF217 (ring finger protein 217) scored cell gain with vemurafenib 0.89; lactate per cell with vemurafenib 0.9.
Against DMPK (DM1 protein kinase), the entry reads cell gain with vemurafenib 0.17; lactate per cell with vemurafenib 1.34.

Called active, among the entries above:
ANAPC1 (anaphase promoting complex subunit 1) → cell gain with vemurafenib: 0.53 (active); lactate per cell with vemurafenib: 0.4

Additional reagents follow.
RAMAC (RNA guanine-7 methyltransferase activating subunit) showed cell gain with vemurafenib 0.55; lactate per cell with vemurafenib 1.66.
Knock-down of CDH5 (cadherin 5) resulted in: cell gain with vemurafenib 0.77; lactate per cell with vemurafenib 0.96.
MAGEB10 (MAGE family member B10) gave cell gain with vemurafenib 0.29; lactate per cell with vemurafenib 0.48.
Depletion of SHISA4 (shisa family member 4) came out at: cell gain with vemurafenib 0.59; lactate per cell with vemurafenib 0.49.
UQCR11 (ubiquinol-cytochrome c reductase, complex III subunit XI) showed cell gain with vemurafenib 1.05; lactate per cell with vemurafenib 0.78.
RND2 (Rho family GTPase 2) gave cell gain with vemurafenib 0.31; lactate per cell with vemurafenib 1.17.
